In the supplement of paper PMC12823440, “Inhibitors supercharge kinase turnover through native proteolytic circuits” (Nature, 2025):
Where a name gives a salt, the structure may show the parent alone. The list shows a part of the results. The calls rarely recur for the same compound in another form.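 In K562 cells expressing nanoluciferase-fused kinases, luminescence was recorded at 4 h intervals between 2 and 18 h, normalized as percent of control with DMSO at 100% and a positive control at 0%. A significant (2 sigma) signal drop marks a time point as decreased. The authors' rule for a hit is not shown and takes in more than the number of time points.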

By UniProt entry, the sequences of proteins in these tests, tags left out. Where a name states a change or a piece, a line headed by the entry shows the natural chain unless it says otherwise.
UniProt Q9UQM7, whole entry: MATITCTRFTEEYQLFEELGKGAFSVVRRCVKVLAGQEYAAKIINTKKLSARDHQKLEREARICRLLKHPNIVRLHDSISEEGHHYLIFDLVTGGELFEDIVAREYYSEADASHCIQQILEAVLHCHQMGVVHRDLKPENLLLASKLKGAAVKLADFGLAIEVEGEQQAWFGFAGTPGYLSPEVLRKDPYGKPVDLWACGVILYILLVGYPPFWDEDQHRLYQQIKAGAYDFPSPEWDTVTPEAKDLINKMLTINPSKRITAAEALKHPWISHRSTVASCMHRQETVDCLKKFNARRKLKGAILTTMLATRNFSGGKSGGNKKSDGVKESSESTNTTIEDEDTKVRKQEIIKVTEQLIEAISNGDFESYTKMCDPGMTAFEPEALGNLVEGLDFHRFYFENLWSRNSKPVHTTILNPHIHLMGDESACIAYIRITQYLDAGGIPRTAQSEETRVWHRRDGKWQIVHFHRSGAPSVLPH
UniProt Q13555: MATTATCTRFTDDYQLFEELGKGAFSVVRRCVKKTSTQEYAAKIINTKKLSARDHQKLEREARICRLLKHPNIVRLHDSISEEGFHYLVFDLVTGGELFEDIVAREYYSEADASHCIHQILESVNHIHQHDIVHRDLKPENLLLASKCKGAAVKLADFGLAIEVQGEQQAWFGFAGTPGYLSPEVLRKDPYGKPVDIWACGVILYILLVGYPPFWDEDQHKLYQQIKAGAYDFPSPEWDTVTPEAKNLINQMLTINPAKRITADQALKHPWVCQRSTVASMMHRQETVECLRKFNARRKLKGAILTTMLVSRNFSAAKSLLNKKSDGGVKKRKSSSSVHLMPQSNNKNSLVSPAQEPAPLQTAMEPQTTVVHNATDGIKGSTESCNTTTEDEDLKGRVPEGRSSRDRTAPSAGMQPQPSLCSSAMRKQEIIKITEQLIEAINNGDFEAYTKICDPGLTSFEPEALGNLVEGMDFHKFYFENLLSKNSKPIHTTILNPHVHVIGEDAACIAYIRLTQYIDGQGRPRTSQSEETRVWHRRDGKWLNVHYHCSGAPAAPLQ
UniProt Q15131: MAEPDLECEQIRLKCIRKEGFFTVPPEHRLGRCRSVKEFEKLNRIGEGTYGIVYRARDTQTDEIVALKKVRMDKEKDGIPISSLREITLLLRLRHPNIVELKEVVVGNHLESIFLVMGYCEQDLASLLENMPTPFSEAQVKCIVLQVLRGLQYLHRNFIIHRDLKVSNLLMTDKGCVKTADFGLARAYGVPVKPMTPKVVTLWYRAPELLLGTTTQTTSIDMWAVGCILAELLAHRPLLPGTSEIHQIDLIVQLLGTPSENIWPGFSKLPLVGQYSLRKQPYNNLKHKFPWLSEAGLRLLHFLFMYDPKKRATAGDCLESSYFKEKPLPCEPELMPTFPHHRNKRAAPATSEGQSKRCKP
UniProt Q00526: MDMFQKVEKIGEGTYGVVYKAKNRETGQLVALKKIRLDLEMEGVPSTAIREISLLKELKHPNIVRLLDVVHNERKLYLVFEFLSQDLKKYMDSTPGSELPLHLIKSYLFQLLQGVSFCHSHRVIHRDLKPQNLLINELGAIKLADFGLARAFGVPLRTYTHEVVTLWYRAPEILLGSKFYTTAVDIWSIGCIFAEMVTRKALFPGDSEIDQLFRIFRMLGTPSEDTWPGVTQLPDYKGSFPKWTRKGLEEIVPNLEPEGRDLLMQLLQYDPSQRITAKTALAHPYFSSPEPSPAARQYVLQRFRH
UniProt Q00535, whole entry, looked up: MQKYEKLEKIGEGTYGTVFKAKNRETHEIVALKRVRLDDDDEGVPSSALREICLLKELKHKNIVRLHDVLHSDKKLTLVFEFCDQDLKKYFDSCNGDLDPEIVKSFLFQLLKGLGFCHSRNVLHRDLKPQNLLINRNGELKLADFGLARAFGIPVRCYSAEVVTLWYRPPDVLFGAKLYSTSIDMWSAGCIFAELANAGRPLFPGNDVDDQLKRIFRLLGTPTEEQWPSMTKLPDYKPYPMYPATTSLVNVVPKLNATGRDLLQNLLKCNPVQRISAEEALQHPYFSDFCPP
UniProt Q00534, whole entry: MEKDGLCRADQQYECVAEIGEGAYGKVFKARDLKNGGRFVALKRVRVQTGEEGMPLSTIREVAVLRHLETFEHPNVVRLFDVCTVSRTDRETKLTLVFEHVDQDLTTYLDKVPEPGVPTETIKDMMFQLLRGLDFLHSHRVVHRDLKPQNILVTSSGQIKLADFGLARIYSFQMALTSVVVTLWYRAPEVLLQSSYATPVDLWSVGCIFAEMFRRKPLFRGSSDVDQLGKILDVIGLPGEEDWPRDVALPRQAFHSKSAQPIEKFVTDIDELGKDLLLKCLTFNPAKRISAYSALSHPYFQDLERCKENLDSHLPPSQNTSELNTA
UniProt O96017, whole entry: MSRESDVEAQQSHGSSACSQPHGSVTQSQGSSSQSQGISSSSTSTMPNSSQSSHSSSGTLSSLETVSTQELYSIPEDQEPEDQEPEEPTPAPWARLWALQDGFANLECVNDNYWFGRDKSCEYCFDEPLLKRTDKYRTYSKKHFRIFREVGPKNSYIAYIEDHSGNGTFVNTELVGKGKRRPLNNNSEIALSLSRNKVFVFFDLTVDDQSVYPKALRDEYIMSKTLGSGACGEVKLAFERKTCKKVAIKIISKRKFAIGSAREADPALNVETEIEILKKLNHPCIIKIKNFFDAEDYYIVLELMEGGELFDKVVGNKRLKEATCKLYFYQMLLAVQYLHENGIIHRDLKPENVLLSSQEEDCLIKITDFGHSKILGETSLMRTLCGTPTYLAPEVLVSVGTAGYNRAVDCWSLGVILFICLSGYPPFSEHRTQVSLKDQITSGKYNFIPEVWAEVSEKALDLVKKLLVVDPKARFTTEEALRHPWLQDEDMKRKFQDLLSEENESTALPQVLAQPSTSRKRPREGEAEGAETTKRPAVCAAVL
UniProt P07333, whole entry: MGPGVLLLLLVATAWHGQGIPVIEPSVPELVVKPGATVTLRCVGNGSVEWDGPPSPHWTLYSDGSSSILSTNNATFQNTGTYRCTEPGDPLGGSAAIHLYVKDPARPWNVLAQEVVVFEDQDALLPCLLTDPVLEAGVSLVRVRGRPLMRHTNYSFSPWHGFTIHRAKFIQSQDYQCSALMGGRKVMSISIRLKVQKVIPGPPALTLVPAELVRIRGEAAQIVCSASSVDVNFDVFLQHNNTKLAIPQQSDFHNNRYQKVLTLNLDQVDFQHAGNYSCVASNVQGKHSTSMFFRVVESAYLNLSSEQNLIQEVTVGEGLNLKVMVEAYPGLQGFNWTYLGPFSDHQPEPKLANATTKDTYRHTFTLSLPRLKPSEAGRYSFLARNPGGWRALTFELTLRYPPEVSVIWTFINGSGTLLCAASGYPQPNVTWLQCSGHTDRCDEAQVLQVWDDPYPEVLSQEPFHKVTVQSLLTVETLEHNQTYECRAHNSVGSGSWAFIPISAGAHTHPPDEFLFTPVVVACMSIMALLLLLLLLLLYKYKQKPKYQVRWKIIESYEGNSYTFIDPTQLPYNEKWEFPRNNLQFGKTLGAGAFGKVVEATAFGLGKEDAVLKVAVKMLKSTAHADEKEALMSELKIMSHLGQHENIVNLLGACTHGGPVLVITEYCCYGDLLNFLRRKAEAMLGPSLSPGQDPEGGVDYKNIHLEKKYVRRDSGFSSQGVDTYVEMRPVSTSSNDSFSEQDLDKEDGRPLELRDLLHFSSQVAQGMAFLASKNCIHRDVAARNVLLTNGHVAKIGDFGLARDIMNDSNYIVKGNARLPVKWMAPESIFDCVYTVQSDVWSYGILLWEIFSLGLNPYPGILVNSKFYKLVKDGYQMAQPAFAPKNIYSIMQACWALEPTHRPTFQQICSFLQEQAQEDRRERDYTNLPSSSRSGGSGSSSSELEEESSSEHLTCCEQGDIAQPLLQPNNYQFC
UniProt P41240: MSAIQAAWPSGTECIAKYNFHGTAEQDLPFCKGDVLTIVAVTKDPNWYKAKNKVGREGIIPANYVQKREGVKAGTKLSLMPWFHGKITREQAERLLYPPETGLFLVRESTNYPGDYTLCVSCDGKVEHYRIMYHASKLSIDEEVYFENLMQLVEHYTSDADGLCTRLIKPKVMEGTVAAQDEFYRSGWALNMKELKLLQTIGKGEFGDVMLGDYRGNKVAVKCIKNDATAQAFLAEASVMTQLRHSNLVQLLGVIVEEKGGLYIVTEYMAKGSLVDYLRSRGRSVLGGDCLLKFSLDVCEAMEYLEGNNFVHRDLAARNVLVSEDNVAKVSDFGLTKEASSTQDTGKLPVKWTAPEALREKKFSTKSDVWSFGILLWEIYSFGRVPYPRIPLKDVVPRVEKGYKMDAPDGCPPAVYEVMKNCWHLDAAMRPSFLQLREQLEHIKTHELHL

Legend:
Experiment in all cases: number of time points (of 5) at which kinase-Nluc abundance scored as decreased, DMSO-normalised (count); higher = more persistent destabilization
Conditions in all cases: K562; 2-18 h
CAMK2A = CAMK2A (UniProt Q9UQM7)
CAMK2G = CAMK2G (UniProt Q13555)
CDK10 = CDK10 (UniProt Q15131)
CDK2 = CDK2 (UniProt P24941)
CDK3 = CDK3 (UniProt Q00526)
CDK5 = CDK5 (UniProt Q00535)
CDK6 = CDK6 (UniProt Q00534)
CHEK2 = CHEK2 (UniProt O96017)
CSF1R = CSF1R (UniProt P07333)
CSK = CSK (UniProt P41240)

SMILES	number of time points (CAMK2A)	number of time points (CAMK2G)	number of time points (CDK10)	number of time points (CDK2)	number of time points (CDK3)	number of time points (CDK5)	number of time points (CDK6)	number of time points (CHEK2)	number of time points (CSF1R)	number of time points (CSK)
C[C@@H]1O[C@@H](O[C@H]2[C@H](OC(=O)[C@]34CCC(C)(C)C[C@H]3C3=CC[C@@H]5[C@@]6(C)C[C@H](O)[C@H](O[C@@H]7O[C@H](CO)[C@@H](O)[C@H](O)[C@H]7O)C(CO)(CO)[C@@H]6CC[C@@]5(C)[C@]3(C)C[C@H]4O)OC[C@H](O)[C@@H]2O)[C@H](O)[C@H](O)[C@H]1O[C@@H]1OC[C@@H](O)[C@H](O[C@@H]2OC[C@](O)(CO)[C@H]2O)[C@H]1O [Platycodin D] (10 µM)	0	0	0	0	0	0	0	0	0	0
CNC(=O)Nc1cc(Oc2cncc(C)c2)c(-c2ccc(OCC(C)(C)O)nc2)cn1 (2.5 µM)	0	0	0	0	0	0	0	0	0	0
COc1cc(-c2cc(-c3cccc(O)c3)cnc2N)cc(OC)c1OC (2.5 µM)	0	0	0	0	0	0	0	1	0	0
Cc1occ2c1C(=O)c1c(O)ccc(O)c1C2 (2.5 µM)	0	0	0	0	0	0	0	0	0	0
Cn1cc(C2=C(c3c4n(c5ccccc35)CCC(CN)C4)C(=O)NC2=O)c2ccccc21 (stereo not given) [Bisindolylmaleimide X (hydrochloride)] (2.5 µM)	0	0	0	0	0	0	0	0	0	0
CC(C)[C@H](CO)Nc1nc(Nc2ccc(C(=O)O)c(Cl)c2)c2ncn(C(C)C)c2n1 [Purvalanol B] (10 µM)	0	0	0	0	0	0	0	0	0	0
Cn1sc(=O)n(Cc2ccccc2)c1=O (10 µM)	0	0	0	0	0	0	0	0	0	0
CC(C)(C)NS(=O)(=O)c1cncc(-c2cc(F)c3nc(N)nn3c2)c1 (10 µM)	0	0	0	0	0	0	0	0	0	0
CCOC(=O)C1=C[C@]2(CC)CCCN3CCc4c(n1c1ccccc41)[C@@H]32 [Vinpocetine] (10 µM)	0	0	0	0	0	0	0	0	0	0
CC(C)=C/C=C1\O[C@@H]2CC(C)=CC(=O)[C@@H]2[C@]1(C)O [Bisabolangelone] (10 µM)	0	0	0	0	0	0	0	0	0	0
COc1cc(-c2cnc(N)c(-c3ccc(NC(=O)c4cn(CC5CCOCC5)cc(-c5ccc(C)cn5)c4=O)cc3F)c2)ccc1OC[C@H]1COCCO1 [DS-1205b (free base)] (10 µM)	0	0	0	0	0	0	0	0	0	0
CN(C)CCCn1cc(C2=C(c3c[nH]c4ccccc34)C(=O)NC2=O)c2ccccc21 [Bisindolylmaleimide I] (2.5 µM)	0	0	0	0	0	0	0	0	0	0
CNS(=O)(=O)Nc1nccc(Cc2c(C)c3ccc(Oc4ncccn4)cc3oc2=O)c1F (10 µM)	0	0	0	0	0	0	0	1	1	0
COc1cc(Nc2nc3ccccc3nc2NS(=O)(=O)c2ccc(NC(=O)c3ccc(C)c(OC)c3)cc2)cc(OC)c1 (10 µM)	0	0	0	1	0	0	0	0	0	0
CN1CCC(c2ccccc2CC(C)(C)Nc2nc(N3CCOCC3)nc(-n3c(S(C)(=O)=O)nc4ccccc43)n2)CC1 (10 µM)	0	0	0	0	0	0	0	0	0	0
O=C(CCc1ccc2n1[B-](F)(F)[N+]1=C(c3ccc[nH]3)C=CC1=C2)ON1C(=O)CCC1=O [Py-BODIPY-NHS ester] (2.5 µM)	0	0	0	0	0	0	0	0	0	0
C[C@H](Nc1ccc2c(c1)OCCn1cc(N3C(=O)OC[C@H]3C(F)F)nc1-2)C(N)=O (10 µM)	0	0	0	0	0	0	0	0	0	0
Cc1cc(Nc2ncc(Cl)c(Nc3ccccc3S(=O)(=O)C(C)C)n2)c(OC(C)C)cc1C1CCN(CC(=O)NCCNc2cccc3c2C(=O)N(C2CCC(=O)NC2=O)C3=O)CC1 (stereo not given) (10 µM)	0	0	0	0	0	0	4	0	0	0

SMILES	number of time points (CAMK2A)	number of time points (CAMK2G)	number of time points (CDK10)	number of time points (CDK2)	number of time points (CDK3)	number of time points (CDK5)	number of time points (CDK6)	number of time points (CHEK2)	number of time points (CSF1R)	number of time points (CSK)
O=c1cc(-c2ccc(O)cc2)oc2cc(O)c([C@@H]3O[C@H](CO)[C@@H](O)[C@H](O)[C@H]3O)c(O)c12 [Isovitexin] (10 µM)	0	0	0	0	0	0	0	0	0	0
CCn1c(-c2nonc2N)nc2c(C#CCO)ncc(OCCCN)c21 [AKT Kinase Inhibitor] (10 µM)	0	0	0	0	0	0	0	0	0	0
COc1ccc(F)cc1C(=O)NCc1ccc(-c2nn([C@@H](C)C(F)(F)F)c(N)c2C(N)=O)cc1 [Pirtobrutinib] (10 µM)	0	0	0	0	0	0	0	0	0	0
O=C(Nc1cc(Cl)cc(Cl)c1)Nc1cc(Cl)cc(Cl)c1 (10 µM)	0	0	0	0	0	0	0	0	0	0
O=C1C(=Cc2ccc(O)c(O)c2)Oc2ccccc21 (2.5 µM)	0	0	0	0	0	0	0	0	0	0
Cc1cccc(Cn2nc(C)c3c(NC(=O)c4csc5c(N)ncnc45)cccc32)n1 (10 µM)	0	0	0	0	0	0	0	0	0	0
CCOc1cc(C(=O)N2CCC(N3CCN(C)CC3)CC2)ccc1Nc1ncc2c(n1)N(S(C)(=O)=O)c1ccccc1C(=O)N2C (10 µM)	0	0	0	0	0	0	0	0	0	0
CCn1c2ccccc2c2cc(Nc3ccnc(NCCCN4CCOCC4)n3)ccc21 (2.5 µM)	0	0	0	0	0	0	0	0	0	0
COc1ccc(-c2cnc3c(-c4cccc5ncccc45)cnn3c2)cc1 (10 µM)	0	0	0	0	0	0	0	0	0	0
CNC[C@@H](NC(=O)c1ccc(-c2nc([C@H]3CC[C@H](O)[C@@H](F)C3)cnc2N)cc1F)c1cc(F)cc(Br)c1 [Rineterkib] (10 µM)	0	0	0	0	0	0	0	0	0	0
Nc1n[nH]c(N)c1N=Nc1ccc(O)cc1 (10 µM)	0	0	0	0	0	0	0	0	0	0
CC(C)(C)S(=O)(=O)c1cc2c(Nc3ccc4scnc4c3)ccnc2cc1OCCOCCOCCOCCOCC(=O)Nc1cccc2c1CN(C1CCC(=O)NC1=O)C2=O (stereo not given) [PROTAC RIPK degrader-6] (10 µM)	0	0	0	0	0	0	0	0	0	0
CC(=O)Nc1nc(C)c(-c2cc3c(c(S(C)(=O)=O)c2)C(=O)N([C@@H](C)C2CC2)C3)s1 (2.5 µM)	0	0	0	0	0	0	0	0	0	0
O=C(c1ccc(NS(=O)(=O)c2cccc3cccnc23)cc1)N1CCN(CC2CC2)CC1 [Mitapivat] (10 µM)	0	0	0	0	0	0	0	0	0	0
C[C@@H](N)COc1ccc(-c2cnc3ccc(N[C@H](C)c4cccc(F)c4)nn23)cc1 [Taletrectinib] (2.5 µM)	0	0	0	0	0	0	0	0	0	0
CS(=O)(=O)N1CCN(Cc2cn3cc(-c4cnc(N)nc4)nc(N4CCOCC4)c3n2)CC1 (10 µM)	0	0	0	0	0	0	1	0	0	0
Cn1cc(-c2ccc3nnc(Sc4ccc5nn(C)cc5c4)n3n2)cn1 [c-Met inhibitor 1] (10 µM)	0	0	0	0	0	0	0	0	0	0

For reference, 2 of the compounds above:
SMILES	number of time points (CAMK2A)	number of time points (CAMK2G)	number of time points (CDK10)	number of time points (CDK2)	number of time points (CDK3)	number of time points (CDK5)	number of time points (CDK6)	number of time points (CHEK2)	number of time points (CSF1R)	number of time points (CSK)
COc1ccc(F)cc1C(=O)NCc1ccc(-c2nn([C@@H](C)C(F)(F)F)c(N)c2C(N)=O)cc1 [Pirtobrutinib] (10 µM)	0	0	0	0	0	0	0	0	0	0
O=C(Nc1cc(Cl)cc(Cl)c1)Nc1cc(Cl)cc(Cl)c1 (10 µM)	0	0	0	0	0	0	0	0	0	0
